Data from publication PMC4669791.
These are yes or no findings as the source states them, for the method shown. Binding seen in cells or lysates may run through a third protein. Some entries that bind do so weakly or less than the wild type. For some of these results: Tags and fused reporters may be left off the sequences shown. One block for each substance: values may come before it.

Protein sequences, listed by entry. Tags and fused reporters are not part of them. Lines headed by an entry give the natural chain unless they say otherwise; changes in a name come on top. Residues count along the entry.
UniProt P38646, residues 47-679: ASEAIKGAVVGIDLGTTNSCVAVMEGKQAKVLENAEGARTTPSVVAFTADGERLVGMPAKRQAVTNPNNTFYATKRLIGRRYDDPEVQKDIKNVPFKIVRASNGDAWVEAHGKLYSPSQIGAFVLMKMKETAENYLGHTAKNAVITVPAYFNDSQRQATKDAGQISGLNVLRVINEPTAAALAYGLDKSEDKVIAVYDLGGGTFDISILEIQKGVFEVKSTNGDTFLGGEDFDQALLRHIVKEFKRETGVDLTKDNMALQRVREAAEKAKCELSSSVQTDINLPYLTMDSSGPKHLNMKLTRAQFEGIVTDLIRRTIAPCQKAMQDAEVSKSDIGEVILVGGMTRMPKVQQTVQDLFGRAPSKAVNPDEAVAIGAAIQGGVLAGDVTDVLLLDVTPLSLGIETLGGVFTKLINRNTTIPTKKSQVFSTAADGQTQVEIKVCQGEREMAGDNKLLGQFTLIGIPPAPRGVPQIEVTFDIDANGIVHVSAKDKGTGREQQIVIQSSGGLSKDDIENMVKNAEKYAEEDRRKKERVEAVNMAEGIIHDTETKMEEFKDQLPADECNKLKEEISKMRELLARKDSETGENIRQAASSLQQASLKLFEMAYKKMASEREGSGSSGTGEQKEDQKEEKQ
UniProt O00217, residues 35-210: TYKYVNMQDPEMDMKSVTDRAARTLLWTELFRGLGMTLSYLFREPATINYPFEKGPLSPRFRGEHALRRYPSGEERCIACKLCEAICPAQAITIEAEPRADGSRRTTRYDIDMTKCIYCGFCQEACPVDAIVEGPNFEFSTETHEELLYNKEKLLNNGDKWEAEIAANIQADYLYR
UniProt P10809, residues 27-573: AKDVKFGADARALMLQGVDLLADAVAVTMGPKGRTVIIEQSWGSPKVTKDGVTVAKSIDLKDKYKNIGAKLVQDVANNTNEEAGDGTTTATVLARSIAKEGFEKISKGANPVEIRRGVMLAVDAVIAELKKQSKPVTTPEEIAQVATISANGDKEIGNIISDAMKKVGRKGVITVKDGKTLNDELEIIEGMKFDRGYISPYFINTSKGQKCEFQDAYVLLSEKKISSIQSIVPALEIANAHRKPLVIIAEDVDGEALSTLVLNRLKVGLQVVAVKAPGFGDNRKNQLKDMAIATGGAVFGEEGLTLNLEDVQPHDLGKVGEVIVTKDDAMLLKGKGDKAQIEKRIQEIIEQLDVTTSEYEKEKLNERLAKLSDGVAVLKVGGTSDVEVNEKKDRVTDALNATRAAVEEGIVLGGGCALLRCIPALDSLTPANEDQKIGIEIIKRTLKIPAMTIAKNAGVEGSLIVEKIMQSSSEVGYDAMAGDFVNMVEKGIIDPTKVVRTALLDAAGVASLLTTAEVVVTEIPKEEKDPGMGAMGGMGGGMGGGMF

Key:
[1] = biological target: T1, Lon (Co-IP with NDUFS8, Supplementary Figure S4A) (human) (UniProt P36776); assay: co-IP; Co-IP of Lon and NDUFS8 (Supplementary Figure S4A); cells not told in what was shown
T1 sequence: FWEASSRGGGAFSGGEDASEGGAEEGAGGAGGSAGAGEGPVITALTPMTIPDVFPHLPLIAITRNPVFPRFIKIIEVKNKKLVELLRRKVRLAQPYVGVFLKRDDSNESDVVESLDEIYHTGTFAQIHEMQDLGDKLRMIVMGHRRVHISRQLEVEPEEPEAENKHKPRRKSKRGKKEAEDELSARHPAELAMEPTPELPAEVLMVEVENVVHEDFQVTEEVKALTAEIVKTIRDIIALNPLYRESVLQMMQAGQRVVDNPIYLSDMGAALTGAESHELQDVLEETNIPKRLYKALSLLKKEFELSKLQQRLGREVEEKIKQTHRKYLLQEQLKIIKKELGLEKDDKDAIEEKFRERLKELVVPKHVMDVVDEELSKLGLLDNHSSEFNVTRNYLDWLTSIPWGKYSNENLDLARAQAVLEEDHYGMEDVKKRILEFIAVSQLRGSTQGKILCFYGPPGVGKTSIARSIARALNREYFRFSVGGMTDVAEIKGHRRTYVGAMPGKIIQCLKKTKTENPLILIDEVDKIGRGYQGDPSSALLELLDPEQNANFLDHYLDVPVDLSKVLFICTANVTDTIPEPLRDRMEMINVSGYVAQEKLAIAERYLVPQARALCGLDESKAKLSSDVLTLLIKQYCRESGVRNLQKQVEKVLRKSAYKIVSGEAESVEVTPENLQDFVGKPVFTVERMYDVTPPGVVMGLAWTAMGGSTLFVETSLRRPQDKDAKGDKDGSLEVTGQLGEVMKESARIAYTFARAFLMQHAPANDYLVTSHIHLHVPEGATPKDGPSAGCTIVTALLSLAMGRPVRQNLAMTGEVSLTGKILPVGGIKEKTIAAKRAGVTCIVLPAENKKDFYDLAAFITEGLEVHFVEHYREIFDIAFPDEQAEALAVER

[2] = biological target: mtHsp70 (endogenous, FADU cells) (human (endogenous in FADU)) (UniProt P38646); assay: co-IP; FADU cells infected with vector or shRNAs for Hsp60, mtHsp70 or Lon; IP of endogenous proteins with anti-Lon, anti-mtHsp70 or anti-Hsp60, western blot
[3] = biological target: T2, endogenous Lon (FADU cells) (human (endogenous in FADU)) (UniProt P36776); assay: as above
T2 sequence: T1 sequence

[4] = biological target: T3, Human Lon protease with Myc tag (human) (UniProt P36776); assay: co-IP; 293/Lon cells; IP with anti-mtHsp70 or anti-Lon, western blot
T3 sequence: T1 sequence

binding [1]: binds
Substance: NDUFS8 (Co-IP with Lon, Supplementary Figure S4A) (from UniProt O00217 35-210)

binding [2]: binds
Substance: Hsp60 (endogenous, FADU cells) (from UniProt P10809 27-573)

binding [3]: binds
Substance: mtHsp70 (endogenous, FADU cells) (from UniProt P38646 47-679)

binding [4]: binds
Substance: Stress-70 protein, mitochondrial (mtHSP70) (from UniProt P38646 47-679)
